This is one part of the list. These are further read-outs of the screen, such as a control signal, another cell line or another target. No call is given for them. Most of these compounds were active or inconclusive in the main read-out, so they are no random draw. The note in brackets gives the kind of curve behind each potency; many fits are weak.
Assay: qHTS Assay for Modulators of Lamin A Splicing
Details: HeLa LMNA splicing GFP/RFP minigene ratio, 48 h
Outline: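 S3 HeLa stable clones carrying a lamin A-EGFP splicing minigene plus DsRed2 were seeded at 600 cells/well in Opti-MEM with 2% FBS, pin-dosed and incubated 48 h at 37°C. Acumen cytometry (488 nm) gave the GFP/RFP total-intensity ratio.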

[1] = measured here: GFP splicing reporter channel
[2] = measured here: RFP viability control channel

| SMILES | AC50 [1] | AC50 [2] |
| --- | --- | --- |
| Cc1ccccc1NC(=O)c1ccc(CN(c2ccccc2)S(=O)(=O)c2ccccc2)cc1 | 7.94 µM [rising, partial curve] |  |
| NC(N)=Nc1nc2cc([N+](=O)[O-])ccc2o1 | 11.2 µM [falling, partial curve, poor fit] |  |
| CN(c1cccc(NC(=O)c2ccc(N(C)S(=O)(=O)c3ccccc3)cc2)c1)S(C)(=O)=O | 0.0141 µM [rising, full curve, poor fit] | 25.1 µM [rising, partial curve, poor fit] |
| O/N=C1\CC/C(=N\O)c2nn(-c3ccc(Cl)cc3Cl)nc21 |  | 22.4 µM [rising, partial curve, poor fit] |
| O=C(Nc1cccnc1)c1ccc(-c2ccccc2)cc1 |  | 7.94 µM [rising, partial curve, poor fit] |
| COc1ccc(CN(Cc2cc3cc4c(cc3[nH]c2=O)OCO4)C(=O)NC2CCCCC2)cc1 |  | 14.1 µM [rising, single point] |
| Cc1onc(-c2ccccc2Cl)c1C(=O)Nc1cccc2cccnc12 |  | 6.31 µM [rising, full curve] |
| CCOC(=O)C(NC(=O)CCl)(Nc1sc(C)c(CC)c1C#N)C(F)(F)F (stereo not given) | 35.5 µM [rising, single point] |  |
| Cc1ccccc1OCc1nc2ccccc2c(=O)n1/N=C/c1ccco1 |  | 11.2 µM [rising, single point] |
| CCn1cc(CN2CCN(Cc3cccc(OC)c3)C(CCO)C2)c(C)n1 (stereo not given) | 14.1 µM [falling, partial curve] |  |
| Cn1nc(-c2ccc(NCCO)c([N+](=O)[O-])c2)c2ccccc2c1=O |  | 7.94 µM [rising, partial curve] |
| Cc1cc(N2C(=O)C3C4CC(C(Br)C4Br)C3C2=O)no1 (stereo not given) | 0.01 µM [falling, full curve, poor fit] |  |
| S=C(NNc1cccc(Cl)c1)NC1CCCCC1 |  | 31.6 µM [rising, single point] |
| COc1ccc(C(=O)NC(=S)Nc2ccc(CN3CCCCC3)cc2)cc1Cl |  | 1.12 µM [falling, full curve, poor fit] |
| CCOC(=O)c1c(NC(=O)Cc2cccs2)sc2c1CCCC2 |  | 8.91 µM [rising, single point] |
| CCC(=O)Nc1ccccc1C(=O)OCC(=O)c1ccccc1 |  | 5.62 µM [falling, single point] |
| Cc1ccc(/C=C/c2onc(C)c2S(=O)(=O)N2CCC(C(=O)N3CCC(N(C)C(C)C)CC3)CC2)cc1 | 12.6 µM [falling, partial curve] | 28.2 µM [falling, partial curve] |
| CC(C)(C)c1nc2c(C#N)c(-c3ccc(Cl)cc3)ccn2n1 |  | 31.6 µM [rising, single point] |
| COc1ccc(Nc2oc(-c3ccc(Cl)cc3)nc2C#N)cc1 |  | 0.0316 µM [falling, single point] |
| Cc1cccc(C)c1NS(=O)(=O)c1ccc(NC(=O)c2ccc(Cl)c([N+](=O)[O-])c2)cc1 | 25.1 µM [falling, single point] | 25.1 µM [falling, single point] |

| SMILES | AC50 [1] | AC50 [2] |
| --- | --- | --- |
| CC(=O)NC(=S)NNC(=O)c1ccc(Br)cc1 | 1.78 µM [falling, partial curve, poor fit] | 31.6 µM [rising, single point] |
| CCN1CCN(c2cc(N3CCc4ccccc4C3)c(F)cc2[N+](=O)[O-])CC1 |  | 17.8 µM [rising, single point] |
| O=C1CSC(c2ccccc2[N+](=O)[O-])N1c1ccccc1 (stereo not given) | 5.01 µM [rising, single point] |  |
| NCCNc1ccc([N+](=O)[O-])c(Sc2nc3ccccc3[nH]2)c1 |  | 7.08 µM [rising, partial curve] |
| Cc1ccc2c(c1)cc(CN(Cc1ccco1)C(=O)COc1ccccc1)c1nnnn12 | 15.8 µM [rising, single point] | 35.5 µM [rising, single point] |
| Cc1ccc(C)c(CSc2ccc3nnc(-c4ccccn4)n3n2)c1 | 0.0224 µM [falling, full curve, poor fit] |  |
| CCOC(=O)c1c(C)[nH]c(C)c1C(=O)CSc1nc2ccccc2c(=O)n1-c1ccc(F)cc1 |  | 3.16 µM [rising, full curve, poor fit] |
| COc1cccc(C(CC(=O)Nc2cccc3ccccc23)NC(=O)c2ccccc2)c1 (stereo not given) | 22.4 µM [falling, single point] | 35.5 µM [falling, single point] |
| COc1cccc(-c2cc(C(=O)Nc3cc(Cl)ccc3O)on2)c1 | 25.1 µM [falling, partial curve, poor fit] | 0.02 µM [falling, full curve, poor fit] |
| CCCNC(=O)c1cccc(Cn2nc(C)c(Br)c2C)c1 |  | 31.6 µM [rising, single point] |
| CCOC(=O)Cn1c(=O)c2c(nc(Br)n2Cc2ccccc2)n(C)c1=O |  | 35.5 µM [rising, single point] |
| CSc1ccc(C(=O)/C=C/c2ccc(N)cc2)cc1 |  | 14.1 µM [rising, single point] |
| O=[N+]([O-])c1cc(C(F)(F)F)ccc1Oc1cccnc1[N+](=O)[O-] | 11.2 µM [rising, single point] |  |
| CC(=O)OCC1=C(C(=O)O)N2C(=O)[C@@H](NC(=O)CSc3ccncc3)[C@@H]2SC1 | 0.00282 µM [falling, full curve, poor fit] | 0.00631 µM [falling, full curve, poor fit] |
| COc1ccc(-n2cnnc2SCC(=O)c2ccc(S(=O)(=O)N3CCOCC3)cc2)cc1 | 17.8 µM [rising, single point] | 15.8 µM [rising, single point] |
| O=C(CCl)Nc1cccc(-c2cnc3ccccc3n2)c1 |  | 35.5 µM [falling, single point] |
| COc1ccc(NS(=O)(=O)c2ccc(OC)c3ccccc23)cn1 | 22.4 µM [rising, partial curve, poor fit] | 28.2 µM [rising, partial curve] |
| CCn1c(COc2cccc(C)c2)nnc1SCC(=O)CC(=O)Nc1ccccc1OC |  | 10 µM [rising, partial curve, poor fit] |
| Cc1noc(C)c1-c1ccc2ncnc(N3CCOCC3)c2c1 | 10 µM [falling, partial curve] |  |
| O=C(CSCCO)Nc1ccc([N+](=O)[O-])cc1 |  | 7.94 µM [falling, full curve] |

Part of the list above, in CSV form:
SMILES,AC50 [1],AC50 [2]
Cc1ccc(/C=C/c2onc(C)c2S(=O)(=O)N2CCC(C(=O)N3CCC(N(C)C(C)C)CC3)CC2)cc1,"12.6 µM [falling, partial curve]","28.2 µM [falling, partial curve]"
CC(C)(C)c1nc2c(C#N)c(-c3ccc(Cl)cc3)ccn2n1,,"31.6 µM [rising, single point]"
COc1ccc(Nc2oc(-c3ccc(Cl)cc3)nc2C#N)cc1,,"0.0316 µM [falling, single point]"

(continued)

| SMILES | AC50 [1] | AC50 [2] |
| --- | --- | --- |
| CCCCc1nc2c(c3c1C[C@H](C)OC3)CN(C(=O)Nc1cccc(C#N)c1)CC2 | 0.00708 µM [falling, full curve, poor fit] | 1.12 µM [falling, full curve, poor fit] |
| COc1ccc(NC(=O)CC23CC4CC(CC(C4)C2)C3)cn1 | 35.5 µM [falling, single point] |  |
| Cc1ccc(C)c(NC(=O)CN2C(=O)CCc3ccccc32)c1 |  | 0.0891 µM [falling, full curve, poor fit] |
| O=C(NCCOc1cccc(Oc2ccccc2)c1)c1cc(-n2cnnc2)ccc1Cl |  | 3.98 µM [rising, single point] |
| CCc1ccc(-c2nc(CSCC(=O)N3CCN(c4ncccn4)CC3)c(C)o2)cc1 |  | 17.8 µM [rising, single point] |
| Cc1cc(C)c2nc(SC(C)C(=O)NCC(=O)Nc3ccc(F)c(F)c3F)cc(C)c2c1 (stereo not given) |  | 0.891 µM [rising, partial curve, poor fit] |
| CCCn1c(=S)[nH]c2cc(C(=O)NCC3CCCO3)ccc2c1=O (stereo not given) |  | 0.0631 µM [rising, full curve, poor fit] |
| COc1ccc(OCCNC(=O)/C=C/c2ccc([N+](=O)[O-])cc2)cc1 | 14.1 µM [rising, single point] |  |
| CCOC(=O)C1CCCN(S(=O)(=O)c2ccc(F)c(C(=O)Nc3ccc(F)c(F)c3)c2)C1 (stereo not given) |  | 20 µM [rising, single point] |
| CC(C)(C(=O)O)n1cncn1 |  | 0.794 µM [falling, full curve] |
| COC(=O)c1ccc(NC(=O)CCS(=O)(=O)c2ccc(Br)cc2)cc1 |  | 5.01 µM [falling, partial curve, poor fit] |
| CC(=O)c1cc2c(cc1N/C(=N/S(=O)(=O)c1ccc(C)cc1)c1ccccc1)OCO2 |  | 31.6 µM [rising, single point] |
| O=C(NCc1ccco1)c1cnc2ccccn2c1=O |  | 25.1 µM [rising, single point] |
| COc1ccc(-c2cc(C(=O)Nc3nc4ccccc4s3)c3ccccc3n2)cc1OC | 0.447 µM [rising, full curve, poor fit] | 6.31 µM [rising, single point] |
| COc1ccc(N(C)S(=O)(=O)c2cccc(C(=O)N(C)Cc3ccc(C)o3)c2)cc1 |  | 0.02 µM [rising, full curve, poor fit] |
| COc1ccccc1NS(=O)(=O)c1cc(NC(=O)CNC(=O)c2cc(C)cc(C)c2)ccc1C |  | 20 µM [rising, single point] |
| CCOc1ccc(-c2nc(-c3ccc(OC)cc3)no2)cc1OCC |  | 35.5 µM [rising, partial curve] |
| CCc1ccccc1NC(=O)c1ccc([N+](=O)[O-])s1 |  | 5.62 µM [rising, partial curve] |

— PubChem BioAssay AID1487 (National Center for Advancing Translational Sciences (NCATS), 2009)
